This note sets out measurements from paper PMC3171462.

Amino acid sequences for entries named in this document (tags omitted).
UniProt P04792: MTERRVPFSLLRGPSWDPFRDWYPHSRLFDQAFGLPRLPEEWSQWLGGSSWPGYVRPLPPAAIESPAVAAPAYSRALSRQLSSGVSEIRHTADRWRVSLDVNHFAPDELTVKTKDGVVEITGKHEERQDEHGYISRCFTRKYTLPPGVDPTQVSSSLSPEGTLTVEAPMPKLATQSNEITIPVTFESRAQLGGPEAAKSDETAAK

Assay [1] has as its target T1, α-SNAP (UniProt P54920).
T1 sequence: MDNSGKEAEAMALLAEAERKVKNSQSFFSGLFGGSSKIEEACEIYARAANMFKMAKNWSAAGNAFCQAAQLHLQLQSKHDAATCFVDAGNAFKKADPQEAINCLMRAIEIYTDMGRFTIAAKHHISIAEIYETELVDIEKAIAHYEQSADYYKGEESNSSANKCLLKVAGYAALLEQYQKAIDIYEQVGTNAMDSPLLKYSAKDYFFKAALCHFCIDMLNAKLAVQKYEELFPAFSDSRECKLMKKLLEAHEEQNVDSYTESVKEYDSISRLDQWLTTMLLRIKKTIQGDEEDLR
The assay is described as follows: co-IP; cell lysates ectopically expressing the proteins; results not shown.

For assay [2], the target named is T2, BKV agnoprotein (BK virus (BKV)) (UniProt P03085).
T2 sequence: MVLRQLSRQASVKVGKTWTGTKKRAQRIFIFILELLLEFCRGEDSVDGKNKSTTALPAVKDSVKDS
Put plainly: co-IP; HEK293 cells transfected with expression plasmids; whole cell extract immunoprecipitated with anti-agnoprotein or anti-α-SNAP antibodies; immunoblot. In general terms: Immunoblotting shows a protein as a band on a membrane.

The target of assay [3] is T1, α-SNAP. Described as above.
The target of the next assay is T3, His-α-SNAP (UniProt P54920).
T3 sequence: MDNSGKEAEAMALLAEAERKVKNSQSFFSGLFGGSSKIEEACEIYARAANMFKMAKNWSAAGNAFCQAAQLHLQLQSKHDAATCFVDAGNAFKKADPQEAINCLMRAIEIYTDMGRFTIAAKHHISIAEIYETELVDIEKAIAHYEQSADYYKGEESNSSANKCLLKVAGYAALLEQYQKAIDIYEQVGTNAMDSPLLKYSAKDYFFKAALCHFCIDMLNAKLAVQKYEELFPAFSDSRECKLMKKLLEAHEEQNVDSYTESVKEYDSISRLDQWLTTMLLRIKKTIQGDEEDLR
The assay is described as follows: co-IP; in vitro, purified His-α-SNAP (0.15 µM) and purified BKV agnoprotein (0.68 µM); 50 mM Tris-HCl pH 8.0, 150 mM NaCl, 1 mM EDTA, 1 mM DTT; reciprocal immunoprecipitation; immunoblot; both purified.

Assay [4] has as its target T4, GST-agnoprotein (BK virus (BKV)) (UniProt P03085).
T4 sequence: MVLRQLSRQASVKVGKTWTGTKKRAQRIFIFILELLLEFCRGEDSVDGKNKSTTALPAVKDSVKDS
The assay is described as follows: pull-down; 10 µg of purified GST protein added to precleared HEK293 lysate in PBS with 1% Triton-X100; recovered on glutathione beads; immunoblot for α-SNAP; only the target purified.

Assay [5] deals with GST-agnoprotein-stop38 (BK virus (BKV)) (UniProt P03085). The assay is described as above.
In assay [6] the target is T5, purified BKV agnoprotein (BK virus (BKV)) (UniProt P03085).
T5 sequence: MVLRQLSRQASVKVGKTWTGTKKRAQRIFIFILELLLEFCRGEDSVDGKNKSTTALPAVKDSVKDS
Put plainly: co-IP; in vitro, purified His-α-SNAP (0.15 µM) and purified BKV agnoprotein (0.68 µM); 50 mM Tris-HCl pH 8.0, 150 mM NaCl, 1 mM EDTA, 1 mM DTT; reciprocal immunoprecipitation; immunoblot; both purified.

For assay [7], the target named is T6, BKV agnoprotein expressed from the BKV genome (BK virus (BKV)) (UniProt P03085).
T6 sequence: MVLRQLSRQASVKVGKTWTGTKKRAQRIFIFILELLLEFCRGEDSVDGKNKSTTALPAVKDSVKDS
Put plainly: co-IP; U2OS cells transfected with the BKV genome, lysed 48 hours after transfection; agnoprotein immunoprecipitated; immunoblot for endogenous α-SNAP.

Results are given in words; binding and its absence hold for the method and conditions named. For part of these data: Binding seen in cells or lysates may run through a third protein. Some binding calls cover weakened binding; strength is not graded here. For part of these data: Where a sequence is shown, tags or fusion partners need not be part of it.

“BKV agnoprotein mutant Ser-7/Ser-11/Thr-21 to alanine (from UniProt P03085 1-66)”: the binding entry with α-SNAP [1] is given as “binds”. Turning to Hsp27 (from UniProt P04792 1-205), in assay [2], the binding entry is given as “no binding”.

B1: BKV agnoprotein (protein, UniProt P03085 1-66)
chain: MVLRQLSRQASVKVGKTWTGTKKRAQRIFIFILELLLEFCRGEDSVDGKNKSTTALPAVKDSVKDS
B1: the binding result with α-SNAP [3] is given as “binds”.

B2: purified BKV agnoprotein (protein, UniProt P03085 1-66)
chain: MVLRQLSRQASVKVGKTWTGTKKRAQRIFIFILELLLEFCRGEDSVDGKNKSTTALPAVKDSVKDS
In the case of B2, in the assay with His-α-SNAP, the binding result is on record as “binds”.

B3: endogenous α-SNAP of HEK293 cells (protein, UniProt P54920 1-295)
chain: MDNSGKEAEAMALLAEAERKVKNSQSFFSGLFGGSSKIEEACEIYARAANMFKMAKNWSAAGNAFCQAAQLHLQLQSKHDAATCFVDAGNAFKKADPQEAINCLMRAIEIYTDMGRFTIAAKHHISIAEIYETELVDIEKAIAHYEQSADYYKGEESNSSANKCLLKVAGYAALLEQYQKAIDIYEQVGTNAMDSPLLKYSAKDYFFKAALCHFCIDMLNAKLAVQKYEELFPAFSDSRECKLMKKLLEAHEEQNVDSYTESVKEYDSISRLDQWLTTMLLRIKKTIQGDEEDLR
For B3, the binding entry in assay [4] and in assay [5] was “binds” each time.

B4: His-α-SNAP (protein, UniProt P54920 1-295)
chain: MDNSGKEAEAMALLAEAERKVKNSQSFFSGLFGGSSKIEEACEIYARAANMFKMAKNWSAAGNAFCQAAQLHLQLQSKHDAATCFVDAGNAFKKADPQEAINCLMRAIEIYTDMGRFTIAAKHHISIAEIYETELVDIEKAIAHYEQSADYYKGEESNSSANKCLLKVAGYAALLEQYQKAIDIYEQVGTNAMDSPLLKYSAKDYFFKAALCHFCIDMLNAKLAVQKYEELFPAFSDSRECKLMKKLLEAHEEQNVDSYTESVKEYDSISRLDQWLTTMLLRIKKTIQGDEEDLR
For the molecule B4, the binding entry in assay [6] is reported as “binds”.

B5: α-SNAP (protein, UniProt P54920 1-295)
chain: MDNSGKEAEAMALLAEAERKVKNSQSFFSGLFGGSSKIEEACEIYARAANMFKMAKNWSAAGNAFCQAAQLHLQLQSKHDAATCFVDAGNAFKKADPQEAINCLMRAIEIYTDMGRFTIAAKHHISIAEIYETELVDIEKAIAHYEQSADYYKGEESNSSANKCLLKVAGYAALLEQYQKAIDIYEQVGTNAMDSPLLKYSAKDYFFKAALCHFCIDMLNAKLAVQKYEELFPAFSDSRECKLMKKLLEAHEEQNVDSYTESVKEYDSISRLDQWLTTMLLRIKKTIQGDEEDLR
Consider B5, for which, in assay [2], the binding result is listed as “binds”.

B6: endogenous α-SNAP of U2OS cells (protein, UniProt P54920 1-295)
chain: MDNSGKEAEAMALLAEAERKVKNSQSFFSGLFGGSSKIEEACEIYARAANMFKMAKNWSAAGNAFCQAAQLHLQLQSKHDAATCFVDAGNAFKKADPQEAINCLMRAIEIYTDMGRFTIAAKHHISIAEIYETELVDIEKAIAHYEQSADYYKGEESNSSANKCLLKVAGYAALLEQYQKAIDIYEQVGTNAMDSPLLKYSAKDYFFKAALCHFCIDMLNAKLAVQKYEELFPAFSDSRECKLMKKLLEAHEEQNVDSYTESVKEYDSISRLDQWLTTMLLRIKKTIQGDEEDLR
For B6, the binding entry in assay [7] is “binds”.
